# Some of the results follow.
# Protein sequences, listed by entry. Tags and fused reporters are not part of them.
# UniProt Q0JBA9, entry or part of it: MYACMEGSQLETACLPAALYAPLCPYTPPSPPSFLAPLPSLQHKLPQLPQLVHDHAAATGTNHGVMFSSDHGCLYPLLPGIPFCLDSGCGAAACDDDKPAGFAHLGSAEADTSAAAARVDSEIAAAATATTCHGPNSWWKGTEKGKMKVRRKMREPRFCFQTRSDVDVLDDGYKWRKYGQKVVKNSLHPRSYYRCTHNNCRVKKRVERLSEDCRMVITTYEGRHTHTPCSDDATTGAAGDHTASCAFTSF
# Target: OsWRKY34 (Oryza sativa, UniProt Q0JBA9 1-250)
# Assay: protein-binding microarray (RPBM); PBS, 2% BSA, 51.3 ng/ul salmon testes DNA, 50 uM zinc acetate, 200 nM TF, 25 C, 1 h; high values mean tight binding
# Conditions: protein: recombinant; tags: N-terminal polyhistidine and DsRed monomer fusion (pET32a); label: CyDye5-dUTP incorporated in the synthesized complementary strand; 3' TTTTT single-stranded linker to array surface; dsDNA, one strand shown
# How it was run: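 An Axon 4000B scanner gave the binding signal as per-feature fluorescence intensity in arbitrary units. This followed washing of a custom Agilent array that had been incubated for 1 h at 25 °C with 200 nM protein in PBS, 2% BSA, salmon testes DNA and 50 µM zinc acetate. The proteins were transcription factors fused at the N-terminus to polyhistidine and DsRed, expressed in E. coli BL21-CodonPlus and purified on Ni–NTA.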
row,Sequence,binding signal
1,AAGTTTTATTTATATATTTTTTTTTCATTTGCAAATCGGTCGGAGTCACCTAGTGCAG,8820 fluorescence intensity (a.u.)
2,GGATTTAAGTATCACATTTACGTCTATTTTTTCTTTTAGTCGGAGTCACCTAGTGCAG,9650 fluorescence intensity (a.u.)
3,TAGTAGTCTTGGTATGCAGTATTTATTTATTTAAATTTTTCGGAGTCACCTAGTGCAG,8180 fluorescence intensity (a.u.)
4,TTTTGACGACCCTAGCAATATTGCTATACACTCTTCATTCCGGAGTCACCTAGTGCAG,10700 fluorescence intensity (a.u.)
5,TAGTGGATGAGGTTGTACTGCGCCATCTGGTTCGACCACCCGGAGTCACCTAGTGCAG,9730 fluorescence intensity (a.u.)
6,CTGAGACAAGGGAATGCTTGGGGATCGGGGTAATTGATGACGGAGTCACCTAGTGCAG,8090 fluorescence intensity (a.u.)
7,TATAAGTATTTTCTATTTGCGTAAGTTTGGTTGCATTGTACGGAGTCACCTAGTGCAG,8930 fluorescence intensity (a.u.)
8,AATTCTCTTTTTACCTCTGCAAAAATAATTCTTTTTTTATCGGAGTCACCTAGTGCAG,9190 fluorescence intensity (a.u.)
9,CTCTGTTCTTGTTGTTCTTCACCACCATTGAGCTACCATCCGGAGTCACCTAGTGCAG,11400 fluorescence intensity (a.u.)
10,CCCTCCCGCGCCGCCGCCCTCCGGTTGTCTTCCTCGCGGTCGGAGTCACCTAGTGCAG,9420 fluorescence intensity (a.u.)
11,CAGTCCGATATCCTCTTTGCCAAGCTCACGGCCCAGTACGCGGAGTCACCTAGTGCAG,10300 fluorescence intensity (a.u.)
12,CCAACAAGGCCTACTCGCACGTCGTCACTCCGTCCATCTCCGGAGTCACCTAGTGCAG,8220 fluorescence intensity (a.u.)
13,CGGAGTTTGATTGCCCTATAGCTTTTTCACTCGTTTATCACGGAGTCACCTAGTGCAG,8310 fluorescence intensity (a.u.)
14,GGGGTTTGTCCCATCTCGCCTTTCTTAAGTTCTTTTCTGTCGGAGTCACCTAGTGCAG,9380 fluorescence intensity (a.u.)
15,GATCCGTCCGTCCGCCCGCCCGTCGTCGTCGCGCGCCATGCGGAGTCACCTAGTGCAG,8290 fluorescence intensity (a.u.)
16,TTTTAGTGAATATAATGAAATTTCACAGGGGAGGGGCTGGCGGAGTCACCTAGTGCAG,8310 fluorescence intensity (a.u.)
17,TCGTGCATTGTTGTTGCACAATTTCAAATTGTCACGCATCCGGAGTCACCTAGTGCAG,8180 fluorescence intensity (a.u.)
18,CGCAATCCTTCCGTTCTTTTTTTACATGCTGTTGATGTCACGGAGTCACCTAGTGCAG,12000 fluorescence intensity (a.u.)
19,CGTCCAGCCTAACTATTAATTTCTTGGTTCTTACCAGTATCGGAGTCACCTAGTGCAG,8230 fluorescence intensity (a.u.)
20,TGGTGATGTGGACGAATCTCATAGGCTCGTTTTTAGATCTCGGAGTCACCTAGTGCAG,8050 fluorescence intensity (a.u.)
21,CACCGTTGTATTCGTTGTATTCGTTGTAATTAAATCTTTACGGAGTCACCTAGTGCAG,9230 fluorescence intensity (a.u.)

row,Sequence,binding signal
1,AAAAGCCGACCACCGACCCCACGTTCCGCACGCACGAAACCGGAGTCACCTAGTGCAG,8920 fluorescence intensity (a.u.)
2,TCACGCAAACTCAACCCCACTTTTTTTTTCTCTCGTTTCGCGGAGTCACCTAGTGCAG,8180 fluorescence intensity (a.u.)
3,AACACCAAGCTTTCGCGTCTGCCGACCAAGACGAACCCAACGGAGTCACCTAGTGCAG,12000 fluorescence intensity (a.u.)
4,ATATATGTTCCCCTATGTGTGTCAGTTGTAAACAATAATCCGGAGTCACCTAGTGCAG,8320 fluorescence intensity (a.u.)
5,CTTTCACTACCAGAGTTATGTTTGACACTATCACATTCTCCGGAGTCACCTAGTGCAG,8770 fluorescence intensity (a.u.)
6,CGCTCTTCTACCTTTGGCCTCAGTTCTTCAACACAACGTTCGGAGTCACCTAGTGCAG,8990 fluorescence intensity (a.u.)
7,ACATCTCTCCAACCAATACTCTGTCCAGACATTTGAAACACGGAGTCACCTAGTGCAG,8830 fluorescence intensity (a.u.)
8,CATCCGCATCTTCTTCCTCGTTTGACATTGCCCCTGTTGCCGGAGTCACCTAGTGCAG,8760 fluorescence intensity (a.u.)
9,AGATGGGCAAGTCTTTATACTCGGTTTTGTGATCGAGGGGCGGAGTCACCTAGTGCAG,9490 fluorescence intensity (a.u.)
10,TCCATGCATCTTGTGTTTCTTGTGACCTCTAGGCACTCAACGGAGTCACCTAGTGCAG,8260 fluorescence intensity (a.u.)
11,CACACACACAAAGGCACTCTCTCTTCTTCTCTTTCTACTACGGAGTCACCTAGTGCAG,9560 fluorescence intensity (a.u.)
12,CAAGTCACGTATAAAATATTAATCATGTTTTATCATCTAACGGAGTCACCTAGTGCAG,8050 fluorescence intensity (a.u.)
13,ACCGACTCAAAAACCTAACGGCACTTTTTTTATTTTCAACCGGAGTCACCTAGTGCAG,10600 fluorescence intensity (a.u.)
14,GAGCTTTGTATATAATTTGGTCCATTTTTTTTAAAAAAATCGGAGTCACCTAGTGCAG,9830 fluorescence intensity (a.u.)
15,GTTGGTTGCCACCACCATTCCACTAAGTCCGTTCCCATGCCGGAGTCACCTAGTGCAG,8480 fluorescence intensity (a.u.)
16,CGACACATGACTTCACCGCCTGACGCCGCCTCACCACCCACGGAGTCACCTAGTGCAG,9650 fluorescence intensity (a.u.)
17,TTCCGTGGGTGCTTCAAACAATTTTGTGTTCTCTATATTACGGAGTCACCTAGTGCAG,8940 fluorescence intensity (a.u.)
18,TGCACTGTGACTTCTGACTGTTATAAATTGTGTTCTCTTGCGGAGTCACCTAGTGCAG,8730 fluorescence intensity (a.u.)
19,TTCGATTCCATTCCTCTACTTTTCTCGGTCAGTGGACATCCGGAGTCACCTAGTGCAG,10700 fluorescence intensity (a.u.)
20,AAACTGCAATTTGCACCGAGTAATAGTATTTGTGTGTTTTCGGAGTCACCTAGTGCAG,10400 fluorescence intensity (a.u.)
21,GCCCATGATCATCATACATCCATACACAACGAGTGTTAGTCGGAGTCACCTAGTGCAG,8940 fluorescence intensity (a.u.)

row,Sequence,binding signal
1,GCCTAGTCTAGTTTTTATGTGTTCACTGATGATTTTTAAACGGAGTCACCTAGTGCAG,8910 fluorescence intensity (a.u.)
2,TCCACCGTCCAAGCCAGATCCAACGGCCCACATCCGATCCCGGAGTCACCTAGTGCAG,10400 fluorescence intensity (a.u.)
3,ATAGCCAGCTTCCTTTCTTCTTCGTCACACCGACTTAACACGGAGTCACCTAGTGCAG,9110 fluorescence intensity (a.u.)
4,GTTTTTCCTCGTCCTGTGCACGCCAAGATTTCCCAAGAAACGGAGTCACCTAGTGCAG,9650 fluorescence intensity (a.u.)
5,CATAAATAGGAGTGACATTTTTTTATTTGCCATATTTGTACGGAGTCACCTAGTGCAG,8380 fluorescence intensity (a.u.)
6,TTCTGAATCGATCAAGCAACTCCATCTCCTAGCTAGGCCTCGGAGTCACCTAGTGCAG,8100 fluorescence intensity (a.u.)
7,AATACATTTCGCATGTTCTATTGCATCCTTTGAAGGCGATCGGAGTCACCTAGTGCAG,8160 fluorescence intensity (a.u.)
8,CCTGGTGATTGTGGGGCTCTACCTTGTTCTGTGGGGCAAACGGAGTCACCTAGTGCAG,11600 fluorescence intensity (a.u.)
9,TAATGGGTGCTGTCCTGTTGCATATTCTATCCGTTCTATACGGAGTCACCTAGTGCAG,10600 fluorescence intensity (a.u.)
10,TTGCACACCCTCTCATGCCACTCCCGTCAGTTGACCGTGTCGGAGTCACCTAGTGCAG,8840 fluorescence intensity (a.u.)
11,AATATGGAATTACCCACAACCTTTTCGATCTCTCTTTATACGGAGTCACCTAGTGCAG,8780 fluorescence intensity (a.u.)
12,AACCATGCCATTATAATTTTGCAAAGTTTGAGATATACCACGGAGTCACCTAGTGCAG,8210 fluorescence intensity (a.u.)
13,CTGCGTTTCGATCGATATCCTCTGCATGCAATTCTGACCGCGGAGTCACCTAGTGCAG,9210 fluorescence intensity (a.u.)
14,CGGACGCCGCTGCAGTACCCAATGACGACACCACCACCACCGGAGTCACCTAGTGCAG,8310 fluorescence intensity (a.u.)
15,AATTAATTTTTATTTTCTAATAAACTGTTTTAGCTTATTACGGAGTCACCTAGTGCAG,8100 fluorescence intensity (a.u.)
16,GTTTGAGTTTTCTAATTTCTGCTTTCTAATTCATTTTTTCCGGAGTCACCTAGTGCAG,9120 fluorescence intensity (a.u.)
17,TGTTTTTTTTGGGTTCTTGGGAGAGGCTCGCGCGGCTGCGCGGAGTCACCTAGTGCAG,8950 fluorescence intensity (a.u.)
18,GGTAGGAGAGTAGGGGATCTGTTGGAGTTGTTTTTTTTTTCGGAGTCACCTAGTGCAG,13300 fluorescence intensity (a.u.)
19,CGTTGTGTCAAGTGTTCCATCCTTTTGAAATATTAGCTCTCGGAGTCACCTAGTGCAG,11100 fluorescence intensity (a.u.)
20,TTTCCATTTTACTTCGTCAGCGCACACTATCTCCTGGCGCCGGAGTCACCTAGTGCAG,12600 fluorescence intensity (a.u.)
21,CTCTTCGCCGCCGCCGTCCTCCTCGCTATGCCGGGCCTCACGGAGTCACCTAGTGCAG,8120 fluorescence intensity (a.u.)

row,Sequence,binding signal
1,GGGTTTAGGTTTTTACAGGGGAATTTACATGGTTGCCCTTCGGAGTCACCTAGTGCAG,8550 fluorescence intensity (a.u.)
2,ATCTATGTTGCAACATCATCTGGCTCGCGCTCAGAACCATCGGAGTCACCTAGTGCAG,10500 fluorescence intensity (a.u.)
3,CATTCTGGAAACTACCTCACCTCTTTAGTTTGAATCTTTCCGGAGTCACCTAGTGCAG,8550 fluorescence intensity (a.u.)
4,TTGGATTGGTTTCTTTCTGCTCTGTTGCAGCTCCGTTGTCCGGAGTCACCTAGTGCAG,9560 fluorescence intensity (a.u.)
5,GTTCTTGTTTTGTTCCGGTTTCTTGCGCTAATCCATCATGCGGAGTCACCTAGTGCAG,13000 fluorescence intensity (a.u.)
6,GCATAACCTGAACATAGCAAACCAGATATGCTAGCTTTGCCGGAGTCACCTAGTGCAG,8160 fluorescence intensity (a.u.)
7,GGCACTAAATATACGTTGGTACGCTGACTTAGTCTCCCATCGGAGTCACCTAGTGCAG,9770 fluorescence intensity (a.u.)
8,TGATTTTTTAGGGAGGGGTGGTTAGTATAAGAGGGTTTTCCGGAGTCACCTAGTGCAG,20000 fluorescence intensity (a.u.)
9,GAGGAAATGCCTGGGAGGAGGAGGAGGGACTCGGGGCGGGCGGAGTCACCTAGTGCAG,13300 fluorescence intensity (a.u.)
10,CGGTGGTGGGCGCAGACGTGCGGAGGTCGCATGGCTATCGCGGAGTCACCTAGTGCAG,8060 fluorescence intensity (a.u.)
11,TGGGTTGGGAATGTCCTGGTGGACTCCATGCACTATGTTTCGGAGTCACCTAGTGCAG,10700 fluorescence intensity (a.u.)
12,GGGAGTCATGGTGGTGTTGCCAATTCTTTCTTCATTCTTGCGGAGTCACCTAGTGCAG,15800 fluorescence intensity (a.u.)
13,GGACTAGAGTGCAAATTAAGCTGGGTGTGGGTGTGGGTCTCGGAGTCACCTAGTGCAG,10400 fluorescence intensity (a.u.)
14,CAAGGTCCCATGTTTAATCCCCAACACGCTTATAATTTCTCGGAGTCACCTAGTGCAG,10300 fluorescence intensity (a.u.)
15,TCATCCGGCCCATTAACCCAATTTGTCTCTTTCGCGTCGTCGGAGTCACCTAGTGCAG,12600 fluorescence intensity (a.u.)
16,GCTGGCCACTTCACGAAGAGCTCGGTCCGTTTATTCTCACCGGAGTCACCTAGTGCAG,9610 fluorescence intensity (a.u.)
17,TGCGCGCTCGTCGACACACCACCAGTAAGCCTCACGCTTCCGGAGTCACCTAGTGCAG,8170 fluorescence intensity (a.u.)
18,TGTCTTGCACCACTCATTTCATATGGCCCTGCACTACGAGCGGAGTCACCTAGTGCAG,9370 fluorescence intensity (a.u.)
19,GGTCATAATTTAGCTCAATCTGCTGTTTGGTTCATTGGTTCGGAGTCACCTAGTGCAG,9400 fluorescence intensity (a.u.)
20,ATGTTTTGTTTGTCAATGGCTTGTACTGGATAGAGAGGGGCGGAGTCACCTAGTGCAG,8780 fluorescence intensity (a.u.)
21,TAACCACATTGCACGCACACATTCCATACGTAAACTTGAACGGAGTCACCTAGTGCAG,9090 fluorescence intensity (a.u.)

# Quoted at random: four records from the list, in no set order.
row,Sequence,binding signal
11,TGGGTTGGGAATGTCCTGGTGGACTCCATGCACTATGTTTCGGAGTCACCTAGTGCAG,10700 fluorescence intensity (a.u.)
12,GGGAGTCATGGTGGTGTTGCCAATTCTTTCTTCATTCTTGCGGAGTCACCTAGTGCAG,15800 fluorescence intensity (a.u.)
17,TGCGCGCTCGTCGACACACCACCAGTAAGCCTCACGCTTCCGGAGTCACCTAGTGCAG,8170 fluorescence intensity (a.u.)
10,CGGTGGTGGGCGCAGACGTGCGGAGGTCGCATGGCTATCGCGGAGTCACCTAGTGCAG,8060 fluorescence intensity (a.u.)

# Some of the entries so far, with tabs.
row	Sequence	binding signal
1	GGGTTTAGGTTTTTACAGGGGAATTTACATGGTTGCCCTTCGGAGTCACCTAGTGCAG	8550 fluorescence intensity (a.u.)
7	GGCACTAAATATACGTTGGTACGCTGACTTAGTCTCCCATCGGAGTCACCTAGTGCAG	9770 fluorescence intensity (a.u.)
13	GGACTAGAGTGCAAATTAAGCTGGGTGTGGGTGTGGGTCTCGGAGTCACCTAGTGCAG	10400 fluorescence intensity (a.u.)

# — paper PMC7819943, “Rice protein-binding microarrays: a tool to detect cis-acting elements near promoter regions in rice”
